Test results from PMC539286.
Read-outs that look alike come from different tables or passages of the source. Results are given in words; binding and its absence hold for the method and conditions named. Some binding calls cover weakened binding; strength is not graded here. For part of these data: Tags and fused reporters may be left off the sequences shown.

By UniProt entry, the sequences of proteins in these tests, tags left out. Where a name states a change or a piece, a line headed by the entry shows the natural chain unless it says otherwise.
UniProt P11166, whole entry: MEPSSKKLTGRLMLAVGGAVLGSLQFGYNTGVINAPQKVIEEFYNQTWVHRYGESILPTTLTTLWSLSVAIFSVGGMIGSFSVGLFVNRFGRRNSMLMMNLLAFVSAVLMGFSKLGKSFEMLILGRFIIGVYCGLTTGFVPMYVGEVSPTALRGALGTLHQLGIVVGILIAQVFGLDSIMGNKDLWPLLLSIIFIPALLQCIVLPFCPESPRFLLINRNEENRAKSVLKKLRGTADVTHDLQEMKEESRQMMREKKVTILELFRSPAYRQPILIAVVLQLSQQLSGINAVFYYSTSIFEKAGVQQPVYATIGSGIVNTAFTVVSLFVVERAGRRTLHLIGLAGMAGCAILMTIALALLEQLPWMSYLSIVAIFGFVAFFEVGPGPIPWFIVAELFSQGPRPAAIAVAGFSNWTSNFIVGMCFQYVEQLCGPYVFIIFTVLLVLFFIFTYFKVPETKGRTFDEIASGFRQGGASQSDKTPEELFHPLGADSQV

Legend:
[1] = biological target: HTLV receptor (Glut1, the ubiquitous vertebrate glucose transporter) on human cells (human (endogenous in 293T)) (UniProt P11166); assay: flow cytometry on cells; binding interference: 293T cells transfected with Env or rFc-tagged SU subdomain vectors, 24 and 48 h later incubated with the challenging soluble H2_(178)SU-HA; 12CA5 anti HA antibody and anti-mouse-IgG FITC
[2] = biological target: HTLV receptor (Glut1, the ubiquitous vertebrate glucose transporter) on human cells (human (endogenous in 293T)) (UniProt P11166); assay: flow cytometry on cells; data not shown: cell surface binding of H2_(178)SU carrying the same mutations as the H1_(215)SU mutants; cells and tag not stated
[3] = biological target: T1, HTLV receptor (Glut1) on murine fibroblasts (mouse (endogenous in NIH3T3)) (UniProt P17809); assay: flow cytometry on cells; 300 ul conditioned medium of transfected 293T cells with rFc-tagged soluble SU on 5 x 10^5 target cells detached with PBS-EDTA, 30' at 37°C, anti-rabbit-IgG FITC; target cells A23, 293T, NIH3T3, NIH3T3TK^-, HeLa, D17, Jurkat, activated primary human T cells
T1 sequence: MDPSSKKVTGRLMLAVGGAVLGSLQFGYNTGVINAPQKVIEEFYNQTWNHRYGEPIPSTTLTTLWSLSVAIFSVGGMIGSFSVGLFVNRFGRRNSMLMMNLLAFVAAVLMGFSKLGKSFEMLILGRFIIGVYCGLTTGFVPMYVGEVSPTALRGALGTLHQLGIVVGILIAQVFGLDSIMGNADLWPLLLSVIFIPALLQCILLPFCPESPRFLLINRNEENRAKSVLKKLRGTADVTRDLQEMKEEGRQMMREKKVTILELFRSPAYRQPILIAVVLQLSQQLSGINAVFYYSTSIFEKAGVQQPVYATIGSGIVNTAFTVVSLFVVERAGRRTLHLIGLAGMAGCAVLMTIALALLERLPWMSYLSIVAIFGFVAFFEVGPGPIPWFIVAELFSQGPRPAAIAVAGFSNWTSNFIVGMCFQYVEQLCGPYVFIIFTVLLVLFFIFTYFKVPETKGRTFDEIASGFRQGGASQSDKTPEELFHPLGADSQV

[4] = biological target: HTLV receptor (Glut1, the ubiquitous vertebrate glucose transporter) on human cells (human (endogenous in 293T)) (UniProt P11166); assay: as above
[5] = biological target: HTLV receptor (Glut1, the ubiquitous vertebrate glucose transporter) on human cells (human (endogenous in 293T)) (UniProt P11166); assay: as above; remark: listed apart in the source
[6] = biological target: T1, HTLV receptor (Glut1) on murine fibroblasts (mouse (endogenous in NIH3T3)); assay: as above; remark: listed apart in the source

Molecule: H1_(183)FEnv, chimeric HTLV-1/F-MLV Env (from UniProt P23064 21-183; P03390 270-675)
- binding [1]: binds

Molecule: H2_(178)SU with the mutation that corresponds to HTLV-1 R94A (Arg90 of HTLV-2 Env to Ala) (from UniProt P03383 19-178) (domain or fragment)
- binding [2]: binds

Molecule: H2_(178)SU with the mutation that corresponds to HTLV-1 S101A (Ser97 of HTLV-2 Env to Ala) (from UniProt P03383 19-178) (domain or fragment)
- binding [2]: binds

Molecule: H2_(178)SU with the mutation that corresponds to HTLV-1 Y114A (Tyr110 of HTLV-2 Env to Ala) (from UniProt P03383 19-178) (domain or fragment)
- binding [2]: binds weakly

Molecule: H2_(178)SU, soluble HTLV-2 SU amino terminal subdomain without the PRRH, rFc-tagged (from UniProt P03383 19-178) (Fc fusion)
- binding [3]: binds
- binding [4]: binds
- binding [2]: binds

Molecule: H2_(178)SU-HA, HA-tagged soluble HTLV-2 SU amino terminal subdomain (from UniProt P03383 19-178) (domain or fragment)
- binding [1]: binds

Molecule: H2_(211)SU, soluble HTLV-2 SU amino terminal subdomain with the PRRH, rFc-tagged (from UniProt P03383 19-211) (Fc fusion)
- binding [3]: binds
- binding [4]: binds

B1: H1(R94A)SU, H1_(215)SU subdomain with Arg94 mutated to Ala (Fc fusion, UniProt P23064 21-215)
chain: DYSPSCCTLTIGVSSYHSKPCNPAQPVCSWTLDLLALSADQALQPPCPNLVSYSSYHATYSLYLFPHWIKKPNANGGGYYSASYSDPCSLKCPYLGCQSWTCPYTGAVSSPYWKFQQDVNFTQEVSRLNINLHFSKCGFPFSLLVDAPGYDPIWFLNTEPSQLPPTAPPLLPHSNLDHILEPSIPWKSKLLTLVQ
- binding [5]: binds

B2: H1(S101A)SU, H1_(215)SU subdomain with Ser101 mutated to Ala (Fc fusion, UniProt P23064 21-215)
chain: DYSPSCCTLTIGVSSYHSKPCNPAQPVCSWTLDLLALSADQALQPPCPNLVSYSSYHATYSLYLFPHWIKKPNRNGGGYYAASYSDPCSLKCPYLGCQSWTCPYTGAVSSPYWKFQQDVNFTQEVSRLNINLHFSKCGFPFSLLVDAPGYDPIWFLNTEPSQLPPTAPPLLPHSNLDHILEPSIPWKSKLLTLVQ
- binding [5]: binds

B3: H1(D106A)SU, H1_(215)SU subdomain with Asp106 mutated to Ala (Fc fusion, UniProt P23064 21-215)
chain: DYSPSCCTLTIGVSSYHSKPCNPAQPVCSWTLDLLALSADQALQPPCPNLVSYSSYHATYSLYLFPHWIKKPNRNGGGYYSASYSAPCSLKCPYLGCQSWTCPYTGAVSSPYWKFQQDVNFTQEVSRLNINLHFSKCGFPFSLLVDAPGYDPIWFLNTEPSQLPPTAPPLLPHSNLDHILEPSIPWKSKLLTLVQ
- binding [5]: binds

B4: H1_(215)SU, soluble HTLV-1 SU amino terminal subdomain with the PRRH, rFc-tagged (Fc fusion, UniProt P23064 21-215)
chain: DYSPSCCTLTIGVSSYHSKPCNPAQPVCSWTLDLLALSADQALQPPCPNLVSYSSYHATYSLYLFPHWIKKPNRNGGGYYSASYSDPCSLKCPYLGCQSWTCPYTGAVSSPYWKFQQDVNFTQEVSRLNINLHFSKCGFPFSLLVDAPGYDPIWFLNTEPSQLPPTAPPLLPHSNLDHILEPSIPWKSKLLTLVQ
- binding [6]: binds
- binding [5]: binds
